Values of other authors as cited in patent US8741330B2, “Transluminal drug delivery methods and devices” (priority 2006, dated 2014).

Details: as stated in Example 1; cited from earlier work

Compound: CCN(CC)CC(=O)Nc1c(C)cccc1C [lidocaine]
- toxic blood level of lidocaine: greater than 8 μg per ml
